# About 3,700 (1.2%) of roughly 300,000 compounds were called active. Inconclusive means that the source gave no clear call. Such entries were picked first, then a sample of the others. Calls follow the shape of the full dose curve; tested in HEK293 cells. A potency beside an inconclusive call is a rough fit, not a confirmed value.
# Experiment: qHTS for Inhibitors of binding or entry into cells for Lassa Virus; also: nearly all actives have a fitted effect of over 50% in size
# Conditions: Lassa virus pseudotype entry inhibition, cell reporter; activity change, negative = inhibition: at 37.9 µM (top of the series) unless noted
# % is scaled to controls: 0 for no effect and ±100 for the full control effect; potency is read from the fitted curve at half-maximal effect.
Structure (SMILES),Potency,"activity change, negative = inhibition"
CCOC(=O)c1ccc(OCc2nc(-c3cccs3)no2)cc1,"inconclusive: 29.1 µM [activator, partial curve, poor fit]",
COc1ccccc1-c1c(C)nn2c(-c3ccccc3)cc(-c3ccccc3)nc12,,inactive: -0.885% [at 46.1 µM]
Cc1nc(CSc2ccc(Br)cc2)cs1,"inconclusive: 5.01 µM [activator, full curve, poor fit]",
CC(=O)Nc1ccc(N/C=C/C(=O)c2ccco2)cc1,,inactive: -8.94%
COc1ccc(CCC(=O)NCc2ccc3c(c2)CCN3C(=O)c2ccc(Cl)cc2)cc1,"inconclusive: 2 µM [activator, full curve]",
CCc1ccccc1S(=O)(=O)Cc1ccc(C(=O)NCc2ccc(Cl)cc2)o1,"inconclusive: 25.1 µM [inhibitor, partial curve, poor fit]",
Clc1ccc(CCNc2ncnc3c2nnn3Cc2ccccc2)cc1,"inconclusive: 0.199 µM [inhibitor, full curve, poor fit]",
COc1ccccc1Sc1ccccc1CC(C)N (stereo unspecified),"inconclusive: 18.4 µM [inhibitor, single point]",
CCc1c(C)sc2c1CCN(Cc1cccc(OC)c1)C2c1ccccc1 (stereo unspecified),"inconclusive: 22.4 µM [inhibitor, single point]",
COc1ccccc1-n1nnnc1SCC(=O)Nc1ccccn1,"inconclusive: 25.9 µM [activator, single point]",
CCOC(=O)c1sc(NC(=O)CSc2ncn(-c3ccccc3)n2)nc1C,"inconclusive: 0.231 µM [activator, single point]",
CCC1=Nc2cc(C(=O)NCCc3ccc(OC)c(OC)c3)ccc2Sc2ccccc21,"inconclusive: 35.5 µM [inhibitor, single point]",
Cn1cnnc1Sc1ccc(C(=O)NCCC23CC4CC(CC(C4)C2)C3)cc1[N+](=O)[O-],"inconclusive: 35.5 µM [inhibitor, single point]",
OC(COCc1ccccc1)CN1CCN(c2ccccc2)CC1 (stereo unspecified),,inactive: 0.451%
COc1ccc(N(CC(=O)NC2CCCC2)C(=O)c2ccc(N3CCCCC3)nc2)cc1,,inactive: -21.2%
COc1ccc(CCNC(=O)c2ccc3c(c2)N(Cc2ccc(F)cc2)CCS3)c(OC)c1,,inactive: -29.8% [at 46.1 µM]
COc1ccc(NC(=O)CSc2nc(-c3cccs3)cc(C(F)(F)F)n2)cc1Cl,"inconclusive: 0.794 µM [inhibitor, partial curve, poor fit]",
O=C1C=C(NCc2ccc(Cl)cc2)CCC1,"inconclusive: 4.47 µM [inhibitor, single point]",
Cc1cc(C(C)(C)C)oc1C(=O)N(CC(=O)NC1CCCC1)c1cccc(C(F)(F)F)c1,"inconclusive: 20.6 µM [inhibitor, single point]",
CC(C)(C)C(=O)N1CCN(C(c2ccccc2)c2ccccc2)CC1,"inconclusive: 35.5 µM [inhibitor, single point]",
COc1ccc2c(c1)CC/C2=N\OC(=O)c1cccc(C)c1,"inconclusive: 2.59 µM [activator, full curve, poor fit]",

Structure (SMILES),Potency,"activity change, negative = inhibition"
CCCOc1ccc(C(C)=O)cc1CC(C(=O)OCC)C(=O)OCC,"inconclusive: 11.6 µM [inhibitor, partial curve]",
C/C=C/Cn1c(Br)nc2c1c(=O)[nH]c(=O)n2C,"inconclusive: 6.51 µM [activator, partial curve, poor fit]",
Cc1[nH]n(-c2ccccc2)c(=O)c1/C=N\NC(=O)C1COc2ccccc2O1 (stereo unspecified),"inconclusive: 8.91 µM [inhibitor, partial curve]",
Cc1csc2nc(COC(=O)CNC(=O)c3ccc(F)cc3)cc(=O)n12,,inactive: 1.24% [at 46.1 µM]
COc1ccc(NC(=O)c2ccccc2Cl)cc1NC(=O)CN1CCOCC1,,inactive: -9.64%
CCOC(=O)c1c(C)[nH]c(C)c1S(=O)(=O)NCC(=O)Nc1ccc(C)cc1C,"inconclusive: 7.94 µM [activator, partial curve, poor fit]",
COc1cccc([C@@H]2Oc3ccc(OC)cc3C(=O)[C@@H]2OC(=O)N[C@H]2CCCc3ccccc32)c1,"inconclusive: 0.473 µM [activator, full curve]",
O=C(c1ccc(Cl)c(Cl)c1)N1CCC(=O)N(C(COCc2cccc(Cl)c2)Cc2ccccc2)CC1 (stereo unspecified),"inconclusive: 14.6 µM [inhibitor, partial curve, poor fit]",
Cc1ccc(C(=O)NC(=C(Cl)Cl)S(=O)(=O)c2ccccc2)cc1,"inconclusive: 29.1 µM [inhibitor, single point]",
CCOC(=O)C1=C(C)NC(=S)NC1c1ccc(OCC(=O)N2CCCCCC2)cc1 (stereo unspecified),"inconclusive: 14.1 µM [inhibitor, single point]",
O=[N+]([O-])c1ccc(S(=O)(=O)N2CCN=C2SCc2cccnc2)cc1,"inconclusive: 3.98 µM [inhibitor, single point]",
COc1ccc(C2=CC(c3sccc3C)n3nnnc3N2)cc1 (stereo unspecified),,inactive: 17%
O=S(=O)(Oc1ccccc1C(=S)N1CCOCC1)c1ccc(Cl)cc1,"inconclusive: 0.794 µM [activator, single point]",
Cc1ccccc1-n1c(-c2ccc(Cl)cc2)cnc1SCC(=O)NC1CCS(=O)(=O)C1 (stereo unspecified),,inactive: -15.9%
Cc1cccc(N2CCN(C(c3ccccc3)c3nnc(-c4ccccc4F)o3)CC2)c1C (stereo unspecified),"inconclusive: 2.51 µM [inhibitor, partial curve, poor fit]",
CC(C)CCSc1nc2c(c(=O)[nH]c(=O)n2C)n1CCc1ccccc1,"inconclusive: 3.16 µM [inhibitor, single point]",
CCC(C)NC(=O)C1CCCN(c2nc(C)cc(OC)n2)C1 (stereo unspecified),,inactive: -0.429%
CO/N=C/C(C#N)=C/c1cc(C(=O)c2ccccc2)cn1C,"inconclusive: 11.2 µM [inhibitor, partial curve, poor fit]",
CCOC(=O)c1ccc(CNC(=O)c2cc(C(C)(C)C)oc2C)o1,"inconclusive: 29.1 µM [inhibitor, single point]",
COc1ccc(N=C2SC(CC(=O)Nc3ccc(F)cc3)C(=O)N2Cc2ccco2)cc1 (stereo unspecified),"inconclusive: 35.5 µM [inhibitor, single point]",

# Part of the list above in order of number of heavy atoms, high to low:
Structure (SMILES),Potency,"activity change, negative = inhibition"
COc1ccc(NC(=O)c2ccccc2Cl)cc1NC(=O)CN1CCOCC1,,inactive: -9.64%
Cc1csc2nc(COC(=O)CNC(=O)c3ccc(F)cc3)cc(=O)n12,,inactive: 1.24% [at 46.1 µM]
CCCOc1ccc(C(C)=O)cc1CC(C(=O)OCC)C(=O)OCC,"inconclusive: 11.6 µM [inhibitor, partial curve]",
